Reference: patent US20250302767A1, “TREATMENT OF CANCER AND AUTOIMMUNE DISORDERS USING NANO POLYMERS OF HISTONE DEACETYLASE INHIBITORS” (University of Virginia Patent Foundation, priority 2021, published 2025)
Some results were stated once for a whole list of compounds, not compound by compound.

Columns and labels:
BALB/c mice [1] = assay: Repeated dose toxicity study; type: in vivo
From the text: FIGS. 14A and 14B. […] Depicted are the percentage of body weight changes as a percentage of starting weights with SEM (FIG. 14A; n=5 mice/group) and clinical score with SEM (FIG. 14B; n=5 mice/group).
(§1) In vivo studies. For single dose toxicity study, five to seven-week old female BALB/c mice were chosen for the MTD study. Animals were randomly assigned to dose groups based on body weight. […] Mice were divided into two cohorts for Nano-romidepsin (NanoRomi) and free romidepsin. Each cohort was divided into sub-cohorts. Each sub cohort (n=5) received a single treatment of following doses: 1, 2, 3, 5, and 8 mg/kg body weight by intreaperitoneal (IP) and intravenous (IV) route of administration. NanoRomi was diluted under sterile conditions in phosphate buffered saline (PBS). Romidepsin was prepared in DMSO and then diluted with PBS under sterile condition. […] The mice were monitored for 7 days after the last treatment. For single dose and repeated dose toxicity study, we used two endpoints: weight loss and clinical score. Clinical signs were scored by observing activity, appearance (hair coat and eyes/nose), posture, and body condition with a maximum of 3 points going to each (0, normal; 1 slight deviation from normal; 2, moderate deviation from normal, 3, severe deviation from normal). Euthanasia criteria included weight loss either >20% weight loss or reached a clinical score >6.

BALB/c mice [2] = assay: Single dose toxicity study (MTD); type: in vivo; conditions: IP and IV
Description: as §1

## C/C=C1\NC(=O)[C@H]2CSSCC/C=C/[C@H](CC(=O)N[C@H](C(C)C)C(=O)N2)OC(=O)[C@H](C(C)C)NC1=O [Romidepsin, (1S,4S,7Z,10S,16E,21R)-7-Ethylidene-4,21-diisopropyl-2-oxa-12,13-dithia-5,8,20,23-tetrazabicyclo[8.7.6]tricos-16-ene-3,6,9,19,22-pentone]
BALB/c mice [1]; 2 mg/kg IP on days 1, 4, 8 and 11, BALB/c mice
  loss in body weight: < 10%
BALB/c mice [1]; 2 mg/kg IP over 11 days of treatment
  time to recover normal weight post-treatment: 2 to 5 days
BALB/c mice [1]; 3 mg/kg IP on days 1, 4, 8 and 11
  clinical score: > 4
BALB/c mice [2]
  time for acute weight loss to return to baseline: ≤ 14 days
